# Results as given in publication PMC9656839.
# The chains behind the UniProt entries cited, without tags or fusion partners. Where a name states a change or a piece, a line headed by the entry shows the natural chain unless it says otherwise.
# UniProt P63101: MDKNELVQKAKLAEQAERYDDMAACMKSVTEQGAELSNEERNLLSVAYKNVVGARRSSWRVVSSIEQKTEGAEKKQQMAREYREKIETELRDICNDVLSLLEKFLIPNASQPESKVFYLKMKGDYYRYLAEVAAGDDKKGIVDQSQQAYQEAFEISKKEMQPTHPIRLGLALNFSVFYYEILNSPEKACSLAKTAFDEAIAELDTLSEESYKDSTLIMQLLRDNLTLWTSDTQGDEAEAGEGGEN
# UniProt P09405: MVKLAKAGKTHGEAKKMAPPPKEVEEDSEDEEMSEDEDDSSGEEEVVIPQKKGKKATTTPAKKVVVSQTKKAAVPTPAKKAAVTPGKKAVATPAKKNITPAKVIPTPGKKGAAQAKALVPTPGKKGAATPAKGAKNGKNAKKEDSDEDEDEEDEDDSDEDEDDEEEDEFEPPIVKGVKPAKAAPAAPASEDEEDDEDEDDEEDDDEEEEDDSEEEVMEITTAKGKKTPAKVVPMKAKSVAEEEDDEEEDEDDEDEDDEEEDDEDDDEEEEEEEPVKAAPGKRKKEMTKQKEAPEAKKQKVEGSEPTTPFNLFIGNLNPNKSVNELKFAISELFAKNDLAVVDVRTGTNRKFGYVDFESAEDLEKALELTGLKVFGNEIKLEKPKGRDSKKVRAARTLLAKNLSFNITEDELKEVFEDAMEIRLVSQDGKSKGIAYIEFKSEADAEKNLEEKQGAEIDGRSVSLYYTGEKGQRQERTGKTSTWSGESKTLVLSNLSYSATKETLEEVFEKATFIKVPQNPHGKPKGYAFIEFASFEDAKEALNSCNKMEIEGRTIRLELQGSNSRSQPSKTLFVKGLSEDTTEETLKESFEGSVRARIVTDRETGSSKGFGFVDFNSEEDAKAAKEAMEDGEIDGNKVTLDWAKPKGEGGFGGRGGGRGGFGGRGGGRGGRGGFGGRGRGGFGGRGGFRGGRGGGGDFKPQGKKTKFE
# These are yes or no findings as the source states them, for the method shown. Binding seen in cells or lysates may run through a third protein. Here binding means that the protein was enriched with, or labelled near, the bait; the list need not be complete.
# Molecular target: T1, recombinant human PGAM2 (wild type) (human) (UniProt P15259)
# T1 sequence: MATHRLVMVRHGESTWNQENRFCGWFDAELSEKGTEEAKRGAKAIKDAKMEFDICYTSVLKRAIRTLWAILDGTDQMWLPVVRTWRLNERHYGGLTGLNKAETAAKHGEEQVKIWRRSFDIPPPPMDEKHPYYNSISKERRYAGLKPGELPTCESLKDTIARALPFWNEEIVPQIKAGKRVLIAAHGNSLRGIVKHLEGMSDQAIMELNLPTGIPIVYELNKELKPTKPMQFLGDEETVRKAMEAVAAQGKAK
# Test: affinity purification with mass spectrometry; recombinant human PGAM2 immobilised on CNBr-activated Sepharose; RNAse-treated nucleolar protein extract of KLN-205 cells run through three times; wash 20 mM TRIS-HCl pH 7.4, 150 mM NaCl; elution with 2 M NaCl; LC-MS/MS, MASCOT score > 90; only the target purified
substance,measurement,value
14-3-3ζ/δ (from UniProt P63101 1-245),binding,binds
nucleolin (from UniProt P09405 1-707),binding,binds
